From patent US20050227933

The chains behind the UniProt entries cited, without tags or fusion partners. Where a name states a change or a piece, a line headed by the entry shows the natural chain unless it says otherwise.
UniProt P0CAW2: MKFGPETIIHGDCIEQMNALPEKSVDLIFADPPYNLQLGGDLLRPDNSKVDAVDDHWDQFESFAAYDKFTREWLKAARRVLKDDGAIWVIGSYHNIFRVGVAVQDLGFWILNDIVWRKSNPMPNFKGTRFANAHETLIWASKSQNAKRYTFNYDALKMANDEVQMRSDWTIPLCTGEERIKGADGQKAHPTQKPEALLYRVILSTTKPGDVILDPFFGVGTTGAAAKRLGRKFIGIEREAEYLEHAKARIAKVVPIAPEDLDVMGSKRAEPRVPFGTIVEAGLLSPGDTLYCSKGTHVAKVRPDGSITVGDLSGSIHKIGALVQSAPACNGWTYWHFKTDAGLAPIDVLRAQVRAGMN

Target: CcrM adenine DNA methyltransferase (UniProt P0CAW2)
Test: activity assay
Conditions: methylation protects from HinfI/HindIII cleavage; no value given; 30 C, SAM, 150 mM K acetate pH 7.5; purified recombinant protein; label: 5'-32P

Sequence: TCCTCTCGCGAGTCAACAGAAAT / CGCGGATATTTCTGTTGACTCGCGAGAGGA [23/30-mer (unmethylated)]
- activity on this sequence: active
